{
  "source": "PubChem BioAssay AID493014",
  "about": "(National Center for Advancing Translational Sciences (NCATS), 2011)",
  "test": "qHTS Assay to Find Inhibitors of Chronic Active B-Cell Receptor Signaling",
  "details": "ABC-DLBCL IkBa-CBG/CBR reporter, luminescence ratio (green luciferase fused to IkBa over red control in TMD8 lymphoma cells), 4 h",
  "in_short": "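Concentration-response series (up to 46 uM) were applied to TMD8 dual-reporter cells for 4 h at 37C with doxycycline. Green/red ratio, after filter-overlap correction, defined %Activity; red signal alone was normalised to basal cells and zero luminescence.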",
  "key": {"[1]": {"details": "measured here: CBR red luminescence, cell number"}, "[2]": {"details": "measured here: IkBa-CBG green luminescence"}},
  "note": "Some of the results follow. Shown are side measurements of this screen, not its main read-out; they come without a call. Most of these compounds were active or inconclusive in the main read-out, so they are no random draw. Potencies come from curve fits of mixed quality, noted in brackets.",
  "data": [
    {"smiles": "Cc1cc2c(c(=O)n1C)C(Cc1ccccc1)C(C#N)=C(N)O2", "note": "(centres undefined)", "values": [
      {"measurement": "AC50", "setting": "[1]", "value": "11.6 µM [falling, partial curve, poor fit]"}
    ]},
    {"smiles": "OC(COC(c1ccc(Cl)cc1)c1ccc(Cl)cc1)CN1CCN(c2ccccn2)CC1", "note": "(centres undefined)", "values": [
      {"measurement": "AC50", "setting": "[1]", "value": "3.26 µM [rising, single point]"}
    ]},
    {"smiles": "CC12CCC(=O)C=C1CCC1C2CCC2(C)C1CC[C@]2(O)C(=O)CO", "note": "(some centres undefined)", "values": [
      {"measurement": "AC50", "setting": "[1]", "value": "12.6 µM [rising, partial curve, poor fit]"}
    ]},
    {"smiles": "N#CCc1c(C#N)c(N)nc(N2CCN(S(=O)(=O)c3ccccc3)CC2)c1C#N", "values": [
      {"measurement": "AC50", "setting": "[1]", "value": "25.9 µM [rising, partial curve, poor fit]"}
    ]},
    {"smiles": "NC(=O)C1CCN(c2nc(-c3ccccc3Br)cs2)CC1", "values": [
      {"measurement": "AC50", "setting": "[1]", "value": "0.366 µM [falling, full curve]"}
    ]},
    {"smiles": "FC(F)(F)c1ccccc1-c1nc(-c2ccncc2)no1", "values": [
      {"measurement": "AC50", "setting": "[1]", "value": "0.562 µM [rising, full curve, poor fit]"}
    ]},
    {"smiles": "C1=C(c2ccccc2)N2CCN=C2S1", "values": [
      {"measurement": "AC50", "setting": "[1]", "value": "0.164 µM [falling, full curve]"}
    ]},
    {"smiles": "CCOc1ccccc1N1CCN(C(=O)c2cc3cc(OC)ccc3[nH]2)CC1", "values": [
      {"measurement": "AC50", "setting": "[1]", "value": "8.91 µM [falling, partial curve, poor fit]"}
    ]},
    {"smiles": "Cc1cc(C(=O)NNC(=O)c2nn(C)c(=O)c3ccccc23)c(C)o1", "values": [
      {"measurement": "AC50", "setting": "[1]", "value": "10 µM [falling, partial curve, poor fit]"}
    ]},
    {"smiles": "COc1cccc(CN(C)C(=O)c2cc(COc3ccc4ncccc4c3)on2)c1", "values": [
      {"measurement": "AC50", "setting": "[1]", "value": "3.98 µM [rising, single point]"}
    ]},
    {"smiles": "CCCCCC1CCC(C(=O)NNC(=S)NCC)CC1", "note": "(centres undefined)", "values": [
      {"measurement": "AC50", "setting": "[1]", "value": "35.5 µM [falling, single point]"}
    ]},
    {"smiles": "C=CCn1c(=S)[nH]c2cc(-c3ccccc3)sc2c1=O", "values": [
      {"measurement": "AC50", "setting": "[1]", "value": "1.41 µM [falling, full curve]"}
    ]},
    {"smiles": "COc1ccc(NCC(=O)NN=C2CCS(=O)(=O)c3ccc(F)cc32)cc1", "values": [
      {"measurement": "AC50", "setting": "[1]", "value": "23.1 µM [rising, partial curve, poor fit]"}
    ]},
    {"smiles": "Cc1cc(C(=O)OCC(=O)Nc2cc(S(=O)(=O)N3CCOCC3)ccc2Cl)c(C)o1", "values": [
      {"measurement": "AC50", "setting": "[1]", "value": "23.1 µM [falling, single point]"}
    ]},
    {"smiles": "COc1ccc(-c2cc(C(=O)O)c(C)o2)cc1OC", "values": [
      {"measurement": "AC50", "setting": "[1]", "value": "0.0164 µM [falling, full curve, poor fit]"}
    ]},
    {"smiles": "O=C(Cc1cccs1)NCc1cc(Cl)cc(Cl)c1", "values": [
      {"measurement": "AC50", "setting": "[1]", "value": "35.5 µM [rising, single point]"}
    ]},
    {"smiles": "CC(=O)Nc1ccc(-c2nnc(SCc3c(C)cc(C)cc3C)n2C)cc1", "values": [
      {"measurement": "AC50", "setting": "[1]", "value": "29.1 µM [falling, partial curve, poor fit]"}
    ]},
    {"smiles": "O=c1[nH]cnc2c1cnn2Cc1ccccc1", "values": [
      {"measurement": "AC50", "setting": "[1]", "value": "15.8 µM [falling, single point]"},
      {"measurement": "AC50", "setting": "[2]", "value": "14.1 µM [rising, partial curve, poor fit]"}
    ]},
    {"smiles": "CC(=O)Nc1ccc(NC(=O)COC(=O)/C(=C/c2ccccc2)n2nnnc2C)cc1", "values": [
      {"measurement": "AC50", "setting": "[1]", "value": "6.31 µM [falling, full curve]"}
    ]},
    {"smiles": "COc1cccc(-c2nnc(Nc3nc4c(F)cccc4s3)o2)c1", "values": [
      {"measurement": "AC50", "setting": "[1]", "value": "2.06 µM [falling, full curve]"},
      {"measurement": "AC50", "setting": "[2]", "value": "4.61 µM [falling, full curve]"}
    ]},
    {"smiles": "CC(=O)Oc1cc2c(cc1Cl)C1(CC(c3ccccc3Cl)O2)CC(C)(C)NC(=S)N1", "note": "(centres undefined)", "values": [
      {"measurement": "AC50", "setting": "[1]", "value": "25.9 µM [rising, single point]"}
    ]},
    {"smiles": "CC(C)(C)NC(=O)CN1CCN(C(=O)CCl)CC1", "values": [
      {"measurement": "AC50", "setting": "[1]", "value": "3.16 µM [rising, single point]"}
    ]},
    {"smiles": "Cc1cccn2c(=O)c(C=NCCO)c(NCc3ccco3)nc12", "values": [
      {"measurement": "AC50", "setting": "[1]", "value": "0.461 µM [falling, partial curve, poor fit]"}
    ]},
    {"smiles": "CCOc1cc(-c2nc(C)c(C(C)=O)n2O)ccc1OCC(=O)Nc1cccc(C)c1", "values": [
      {"measurement": "AC50", "setting": "[1]", "value": "14.1 µM [falling, partial curve, poor fit]"}
    ]},
    {"smiles": "CCNCCC(=O)N1c2ccccc2Sc2ccc(NC(=O)OCC)cc21", "values": [
      {"measurement": "AC50", "setting": "[1]", "value": "25.9 µM [falling, single point]"}
    ]},
    {"smiles": "COC(=O)C1C(O)=C(C=Nc2ccccc2)C(=O)CC1(C)C", "note": "(centres undefined)", "values": [
      {"measurement": "AC50", "setting": "[1]", "value": "15.8 µM [rising, single point]"},
      {"measurement": "AC50", "setting": "[2]", "value": "11.2 µM [falling, partial curve]"}
    ]},
    {"smiles": "CC(C)C(NC(=O)C1CCCCC1)C(=O)NC1=NCCS1", "note": "(centres undefined)", "values": [
      {"measurement": "AC50", "setting": "[1]", "value": "0.00461 µM [rising, full curve, poor fit]"}
    ]},
    {"smiles": "COc1ccc(/C=N/NC(=O)c2cccc(O)c2)cc1Cn1nc(C)c([N+](=O)[O-])c1C", "values": [
      {"measurement": "AC50", "setting": "[1]", "value": "15.8 µM [falling, partial curve]"}
    ]},
    {"smiles": "CC(C)CCNC(=O)CN(Cc1cccs1)C(=O)CCC(=O)Nc1nccs1", "values": [
      {"measurement": "AC50", "setting": "[1]", "value": "29.1 µM [falling, single point]"}
    ]},
    {"smiles": "CCC(C)(C)NC(=O)C(c1ccco1)N(C(=O)Cn1nnc2ccccc21)c1ccc2c(c1)OCO2", "note": "(centres undefined)", "values": [
      {"measurement": "AC50", "setting": "[1]", "value": "29.1 µM [falling, single point]"}
    ]},
    {"smiles": "CCOC(=O)N1CCN(C(=O)CCn2c(=S)[nH]c3ccccc3c2=O)CC1", "values": [
      {"measurement": "AC50", "setting": "[1]", "value": "5.01 µM [rising, partial curve, poor fit]"}
    ]}
  ]
}
